Measured values from the supplement of paper PMC9877034.
Where a name gives a salt, the structure may show the parent alone. Whole data set: some 1,000 compounds, median “cFRET/donor change relative to DMSO, normalised to beta-lapachone positive control (supercomplex I-IV assembly)” near 0.18, cut for the lowest 2% near -1. Some of the results follow.

The compounds below were run on C2C12 (NDUFB8-AcGFP / COX8A-DsRed-Monomer FRET reporter) (assay: cFRET/donor change relative to DMSO, normalised to beta-lapachone positive control (supercomplex I-IV assembly) (fraction of beta-lapachone effect); higher = more respiratory supercomplex assembly). Settings: 40 µM; 24 h.
Description: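 Cells were treated with 40 uM compound for 24 h and imaged on an IN Cell Analyzer 6000. Corrected FRET was divided by donor signal (cFRET/donor) and measured in two replicate experiments. The score is (mean cFRET/donor of compound - mean DMSO) / (mean beta-lapachone 40 uM - mean DMSO). Compounds flagged for prominent cell death, abnormal morphology or decreased cell number were excluded.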

Compound	cFRET/donor change
Nc1nc2c(nc(Br)n2C2OC3COP(=O)(O)O[C@@H]3C2O)c(=O)[nH]1 (stereo not given in full) [8-Bromo-cGMP sodium]	0.374
N[C@H](C(=O)O)c1cc(O)cc(O)c1 [(S)-3,5-Dihydroxyphenylglycine]	0.27
c1ccc(C(NCc2cccnc2)(c2ccccc2)c2ccccc2)cc1	0.35
Cc1cccc(C#Cc2ccccc2)n1 [6-Methyl-2-(phenylethynyl)pyridine hydrochloride]	0.704
C=CCN1CCc2c(cc(O)c(O)c2Br)[C@@H](c2ccccc2)C1 [R(+)-6-Bromo-APB hydrobromide]	0.558
CCn1ccnc1CC1COc2ccccc2O1 (stereo not given) [Imiloxan hydrochloride]	-0.0679
O=C(NOC[C@H](O)CO)c1ccc(F)c(F)c1Nc1ccc(I)cc1F	0.21
Cc1cc(C)c(/C=C2\C(=O)Nc3ccccc32)[nH]1	-2.59
O=C1CC2(CCCC2)CC(=O)N1CCCCN1CCN(c2ncccn2)CC1 [Buspirone hydrochloride]	-0.101
Nc1ncnc2c1nc(Sc1ccc(Cl)cc1)n2C1OC2COP(=O)(O)O[C@@H]2[C@@H]1O (stereo not given in full) [8-(4-Chlorophenylthio)-cAMP sodium]	0.225
O=C(NOCC1CC1)c1cc(Br)c(F)c(F)c1Nc1ccc(I)cc1Cl	0.176
O=C(O)C1=CCCNC1 [Guvacine hydrochloride]	-0.0153
Nc1ccc(S(=O)(=O)Nc2ccnn2-c2ccccc2)cc1 [Sulfaphenazole]	0.274
CC(C)(C)[C@]1(O)CCN2C[C@H]3c4ccccc4CCc4cccc(c43)[C@@H]2C1 (racemic) [(±)-Butaclamol hydrochloride]	0.944
CC(C)(C)[C@]1(O)CCN2C[C@H]3c4ccccc4CCc4cccc(c43)[C@@H]2C1 [(+)-Butaclamol hydrochloride]	-0.00393
Nc1nc2[nH]c(=O)cnc2c(=O)[nH]1 [Isoxanthopterin]	-0.168
Nc1nc(=O)c(Br)c(-c2ccccc2)[nH]1 [Bropirimine]	-0.0226
COc1cc(NS(C)(=O)=O)ccc1Nc1c2ccccc2nc2ccccc12 [Amsacrine hydrochloride]	0.257
N=C(N)SCCc1c[nH]cn1 [Imetit dihydrobromide]	-0.0661
Cc1cnc(NC(=O)C2=C(O)c3ccccc3S(=O)(=O)N2C)s1 [Meloxicam sodium]	0.0692
CC(C)NCC(O)COc1ccc(CC(N)=O)cc1 (racemic) [(±)-Atenolol]	-0.0379
COCCOC(=O)C1=C(C)NC(C)=C(C(=O)OC/C=C/c2ccccc2)C1c1cccc([N+](=O)[O-])c1 (stereo not given) [Cilnidipine]	0.107
CCn1nc(C(=O)O)c(=O)c2cc3c(cc21)OCO3 [Cinoxacin]	0.515

For convenience, some entries already given:
Compound	cFRET/donor change
Nc1nc2c(nc(Br)n2C2OC3COP(=O)(O)O[C@@H]3C2O)c(=O)[nH]1 (stereo not given in full) [8-Bromo-cGMP sodium]	0.374
N[C@H](C(=O)O)c1cc(O)cc(O)c1 [(S)-3,5-Dihydroxyphenylglycine]	0.27

Continued:

Compound	cFRET/donor change
CN1CCN(c2nc3cc(C(F)(F)F)ccc3n3cccc23)CC1	0.414
CCCn1c(=O)c2c(ncn2C)n(CCC)c1=O [1,3-Dipropyl-7-methylxanthine]	0.0722
C[C@H]1C[C@H]2[C@@H]3CCC4=CC(=O)C=C[C@]4(C)[C@@]3(F)[C@@H](O)C[C@]2(C)[C@@]1(O)C(=O)CO [Betamethasone]	0.012
CC1=Nc2ccc(Cl)cc2S(=O)(=O)N1 [Diazoxide]	-0.0731
Cc1ccc(Cl)c(Nc2ccccc2C(=O)O)c1Cl [Meclofenamic acid sodium]	0.255
CCCCCCCCCCCCCCCC(=O)OC[C@H](COP(=O)(O)OCCNC(=O)[C@H](C)NC(=O)CC[C@@H](NC(=O)[C@H](C)NC(=O)[C@@H](C)O[C@H]1[C@H](O)[C@@H](CO)OC(O)[C@@H]1NC(C)=O)C(N)=O)OC(=O)CCCCCCCCCCCCCCC (stereo not given in full) [Mifamurtide]	-0.0931
Cn1c(=O)c2nc[nH]c2n(C)c1=O [Theophylline]	0.334
CN(C)CCC(c1ccc(Cl)cc1)c1ccccn1 (single isomer, unassigned; (+)) [(+)-Chlorpheniramine maleate]	0.378
Cc1scc2c1N(C(=O)CN1CCN(C)CC1)c1ccccc1NC2=O [Telenzepine dihydrochloride]	-0.254
Cc1cc2c(cc1Cl)N(C(=O)Nc1ccc(Oc3cccnc3C)nc1)CC2	-1.37
O=C(N[C@@H](Cc1ccccc1)C(=O)CCl)OCc1ccccc1 [Z-L-Phe chloromethyl ketone]	0.144
CCSC(=N)N [S-Ethylisothiourea hydrobromide]	0.396
CC(=O)c1ccc(S(=O)(=O)NC(=O)NC2CCCCC2)cc1 [Acetohexamide]	0.4
Nc1ncn([C@@H]2O[C@H](CO)[C@@H](O)[C@H]2O)c(=O)n1 [5-azacytidine]	0.0634
CCCNC(C)C(=O)Nc1ccccc1C (stereo not given) [Prilocaine hydrochloride]	0.324
COc1ccc(CN(CCN(C)C)c2ccccn2)cc1 [Pyrilamine maleate]	0.225
CNC(=O)c1cc2c(cn1)[nH]c1ccccc12 [N-Methyl-beta-carboline-3-carboxamide]	-0.445
CCC(=O)N1CCN(C(=O)c2ccccc2)CC1	0.181
OC[C@H]1O[C@H]([S-])[C@H](O)[C@@H](O)[C@@H]1O.[Au+] [Aurothioglucose]	-0.0527
CCCN[C@H]1CCc2nc(N)sc2C1 [Pramipexole dihydrochloride]	0.161
O=C1CCC(c2ccc(-n3ccnc3)cc2)=NN1 [Imazodan]	0.0699
Cn1c(=O)c(-c2c(Cl)cccc2Cl)cc2cnc(Nc3ccc(N4CCOCC4)cc3)nc21	-0.227
